In patent US20160220689A1 (priority 2013, published 2016):

test: general procedure: solution-phase peptide synthesis; details: coupling step

Row | Substance | step yield [%]
1 | Boc-Gly-Leu-Phe-Gly-amino diethylmalonate | 66
2 | Boc-Pro-Val-Gly-Leu-Ile-Gly-amino diethylmalonate | 53

same assay, conditions: late stage modification step

Row | Substance | step yield [%]
3 | H2N-Gly-Leu-Phe-Gly-amino diethylmalonate trifluoroacetate | 94
4 | HO-Succ-Pro-Val-Gly-Leu-Ile-Gly-amino diethylmalonate | 94
5 | tert-BuO-Succ-Gly-Leu-Phe-Gly-amino diethylmalonate | 65
6 | tert-BuO-Succ-Pro-Val-Gly-Leu-Ile-Gly-amino diethylmalonate | 61
